The source of these data is US5126326A (Bio-Mega, Inc., priority 1989, dated 1992).

Some peptides are written in HELM: one residue between dots, names in brackets for other building blocks, links after the first $.

The first data set is described as follows: general procedure: solution-phase peptide synthesis; BOP. As to conditions: coupling step, HCl.
In the case of Boc-Tyr-Val-ACHPA-Leu-Phe-NH2, the step yield is reported as 66%.

Boc-Val-ACHPA-Leu-Phe-NH2 yielded a step yield of 84%.

Still in this data set, the particulars now being: late stage modification step, HCl.
With Boc-Tyr(OAcOBzl)-Val-ACHPA-Leu-Phe-NH2, the step yield was found to be 72%.

In turn, “PEPTIDE1{[Boc].[Tyr(O-AcOH)].V.[ACHPA].L.F.[am]}$$$$V2.0” registered a step yield of 70%.

Substance “PEPTIDE1{[Tyr(O-AcOH)].V.[ACHPA].L.F.[am]}$$$$V2.0” showed a step yield of 86%.

Turning to “PEPTIDE1{[Tyr(O-AcOBzl)].V.[ACHPA].L.F.[am]}$$$$V2.0”, the step yield is 65%.
